# Source: patent publication US20230331694A1, “FAP-ACTIVATED COMPOUNDS FOR TREATMENT OF CANCER” (The Johns Hopkins University, priority 2020, published 2023)
# Some of these results come from one statement about several compounds together.
# Assay: Pharmacokinetics: plasma, liver, kidney, smooth muscle levels after Compound 1 dosing
# Conditions: any time point, independent of route (FIG. 9D)
smiles,measurement,value
O=C(Nc1ccc([N+](=O)[O-])cc1Cl)c1cc(Cl)ccc1OCc1ccc(NC(=O)C2CC(F)(F)CN2C(=O)CNC(=O)c2ccnc3ccccc23)cc1 (stereo not shown) [Compound 1],smooth muscle level,< 1 µM
